Series [1] can be described thus: general procedure: Fmoc solid-phase peptide synthesis; Wang resin; HBTU / DIPEA. To be noted: whole synthesis, scale 0.25 mmol.
Series [2] can be described thus: general procedure: Fmoc solid-phase peptide synthesis; Wang resin preloaded with the first Fmoc-protected amino acid (0.69 mmol g^-1); HBTU / DIPEA. To be noted: whole synthesis.

In series [1], N-Octanoic acid-Val3-His-Gly-Val3 returned an isolated mass of 52 mg and an isolated yield of 22%.
Consider N- Val3-His-Gly-Val3, for which, in series [2], the isolated mass turned out to be 38 mg. In addition, the isolated yield in series [2] (scale of the general procedure 0.25 mmol) stood at 19%.
